Data published in doi:10.1101/2020.08.21.261982.
Results are given in words; binding and its absence hold for the method and conditions named. In cells and extracts the contact can be indirect. Some binding calls cover weakened binding; strength is not graded here.

The chains behind the UniProt entries cited, without tags or fusion partners.
UniProt P17742: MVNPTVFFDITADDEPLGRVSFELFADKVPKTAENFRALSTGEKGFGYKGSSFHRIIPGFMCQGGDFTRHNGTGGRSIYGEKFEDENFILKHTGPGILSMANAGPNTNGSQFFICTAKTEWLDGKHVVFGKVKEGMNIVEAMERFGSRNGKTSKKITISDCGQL

T1: small acidic Hsp90-binding co-chaperone p23 (endogenous, N2a cells) (mouse (endogenous in N2a)) (UniProt Q9R0Q7)
T1 sequence: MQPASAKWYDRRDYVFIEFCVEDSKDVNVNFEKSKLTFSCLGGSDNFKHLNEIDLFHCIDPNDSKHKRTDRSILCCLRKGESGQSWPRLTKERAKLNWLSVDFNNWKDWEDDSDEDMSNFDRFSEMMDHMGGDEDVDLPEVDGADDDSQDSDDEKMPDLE


Columns and labels:
[1] = biological target: T1, small acidic Hsp90-binding co-chaperone p23 (endogenous, N2a cells) (mouse (endogenous in N2a)); assay: co-IP
[2] = biological target: Cyclophilin A (endogenous, N2a cells) (mouse (endogenous in N2a)) (UniProt P17742); assay: co-IP

binding [1]	binding [2]	Molecule
binds		Cyclophilin A (endogenous, N2a cells) (from UniProt P17742 1-164)
	binds	human p23 (pRK5MCS-hp23), overexpressed in N2a cells (protein, UniProt Q15185 1-160) MQPASAKWYDRRDYVFIEFCVEDSKDVNVNFEKSKLTFSCLGGSDNFKHLNEIDLFHCIDPNDSKHKRTDRSILCCLRKGESGQSWPRLTKERAKLNWLSVDFNNWKDWEDDSDEDMSNFDRFSEMMNNMGGDEDVDLPEVDGADDDSQDSDDEKMPDLE
